Data taken from the supplement of paper PMC10849652.
This is one part of the list. Residues, ends and D or L forms follow the SMILES beside them. *: point of attachment. Cbz = O=C(OCc1ccccc1)*

Amino acid sequences for entries named in this document (tags omitted). A change or cut given only in a name is not applied to a line headed by its entry.
UniProt Q00765: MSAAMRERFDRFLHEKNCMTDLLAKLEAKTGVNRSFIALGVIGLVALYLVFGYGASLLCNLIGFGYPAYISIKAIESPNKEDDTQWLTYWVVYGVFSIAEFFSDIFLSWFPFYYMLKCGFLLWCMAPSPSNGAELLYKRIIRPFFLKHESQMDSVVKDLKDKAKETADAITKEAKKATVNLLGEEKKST
UniProt Q6JBY9, whole entry, looked up: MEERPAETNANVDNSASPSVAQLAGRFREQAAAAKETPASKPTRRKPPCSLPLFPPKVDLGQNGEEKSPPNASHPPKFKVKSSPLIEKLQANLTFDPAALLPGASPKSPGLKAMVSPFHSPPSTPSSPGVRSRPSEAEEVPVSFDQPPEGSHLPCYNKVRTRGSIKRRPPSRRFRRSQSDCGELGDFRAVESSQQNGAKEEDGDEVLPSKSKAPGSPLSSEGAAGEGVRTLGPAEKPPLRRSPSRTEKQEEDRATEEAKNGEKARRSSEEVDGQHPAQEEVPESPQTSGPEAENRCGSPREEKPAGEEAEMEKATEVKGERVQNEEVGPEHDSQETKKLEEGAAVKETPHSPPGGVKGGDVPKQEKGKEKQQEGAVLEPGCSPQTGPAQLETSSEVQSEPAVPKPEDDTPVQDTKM
UniProt Q9BRS2: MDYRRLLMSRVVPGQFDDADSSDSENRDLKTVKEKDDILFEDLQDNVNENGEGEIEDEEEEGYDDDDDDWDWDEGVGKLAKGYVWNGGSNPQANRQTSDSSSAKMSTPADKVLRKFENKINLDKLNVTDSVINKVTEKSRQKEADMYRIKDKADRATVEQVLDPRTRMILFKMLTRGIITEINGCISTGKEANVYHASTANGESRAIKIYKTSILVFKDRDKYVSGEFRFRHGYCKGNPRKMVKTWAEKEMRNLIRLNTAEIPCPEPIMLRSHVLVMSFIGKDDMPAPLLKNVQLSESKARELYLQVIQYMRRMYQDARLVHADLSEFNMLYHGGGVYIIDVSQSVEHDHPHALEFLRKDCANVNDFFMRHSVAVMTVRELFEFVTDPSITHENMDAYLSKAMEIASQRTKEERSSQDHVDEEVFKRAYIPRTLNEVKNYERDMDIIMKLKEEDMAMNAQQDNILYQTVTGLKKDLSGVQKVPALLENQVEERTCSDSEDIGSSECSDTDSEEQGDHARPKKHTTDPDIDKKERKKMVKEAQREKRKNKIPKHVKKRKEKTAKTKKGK
UniProt Q14257: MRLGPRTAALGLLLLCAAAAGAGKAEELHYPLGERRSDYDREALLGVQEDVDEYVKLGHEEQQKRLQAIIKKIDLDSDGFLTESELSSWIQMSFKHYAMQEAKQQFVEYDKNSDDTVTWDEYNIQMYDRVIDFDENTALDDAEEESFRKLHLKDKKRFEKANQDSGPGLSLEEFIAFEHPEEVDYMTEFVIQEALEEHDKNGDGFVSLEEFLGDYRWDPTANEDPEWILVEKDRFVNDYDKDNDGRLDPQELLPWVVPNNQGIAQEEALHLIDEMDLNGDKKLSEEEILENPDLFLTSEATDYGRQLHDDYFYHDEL
UniProt Q9Y508: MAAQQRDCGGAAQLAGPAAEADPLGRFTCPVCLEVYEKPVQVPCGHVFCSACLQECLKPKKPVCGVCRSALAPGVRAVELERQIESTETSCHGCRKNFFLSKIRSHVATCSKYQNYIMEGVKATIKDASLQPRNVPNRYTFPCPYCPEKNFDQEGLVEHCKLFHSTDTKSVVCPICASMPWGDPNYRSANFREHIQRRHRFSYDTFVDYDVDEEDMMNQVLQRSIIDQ
UniProt Q8IXI1, whole entry, looked up: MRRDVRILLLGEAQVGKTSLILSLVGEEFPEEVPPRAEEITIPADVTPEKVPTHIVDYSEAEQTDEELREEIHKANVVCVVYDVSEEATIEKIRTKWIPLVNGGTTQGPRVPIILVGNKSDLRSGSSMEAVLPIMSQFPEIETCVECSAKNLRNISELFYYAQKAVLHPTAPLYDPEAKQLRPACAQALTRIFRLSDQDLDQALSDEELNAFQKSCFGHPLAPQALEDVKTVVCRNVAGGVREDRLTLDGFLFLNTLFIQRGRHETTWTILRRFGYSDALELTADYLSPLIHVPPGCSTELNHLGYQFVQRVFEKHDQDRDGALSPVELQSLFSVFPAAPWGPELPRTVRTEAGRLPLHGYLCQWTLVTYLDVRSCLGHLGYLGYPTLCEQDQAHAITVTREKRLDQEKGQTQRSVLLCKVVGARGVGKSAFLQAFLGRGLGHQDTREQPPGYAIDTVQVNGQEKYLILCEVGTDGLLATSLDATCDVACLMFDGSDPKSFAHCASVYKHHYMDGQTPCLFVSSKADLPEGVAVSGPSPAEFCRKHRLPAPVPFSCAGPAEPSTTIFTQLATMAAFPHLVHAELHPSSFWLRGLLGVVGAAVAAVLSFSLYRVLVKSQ
UniProt O15258: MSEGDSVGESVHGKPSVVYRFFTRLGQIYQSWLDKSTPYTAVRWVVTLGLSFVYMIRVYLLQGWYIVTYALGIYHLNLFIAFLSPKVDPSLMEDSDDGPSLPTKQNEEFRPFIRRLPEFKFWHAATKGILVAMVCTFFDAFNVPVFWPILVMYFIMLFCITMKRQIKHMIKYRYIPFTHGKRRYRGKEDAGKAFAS
UniProt P84095: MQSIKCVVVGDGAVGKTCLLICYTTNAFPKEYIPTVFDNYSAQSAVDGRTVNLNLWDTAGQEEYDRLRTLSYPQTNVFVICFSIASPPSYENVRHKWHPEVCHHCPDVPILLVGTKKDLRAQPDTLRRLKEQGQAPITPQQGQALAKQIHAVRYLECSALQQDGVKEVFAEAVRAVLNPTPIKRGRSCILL
UniProt Q8TAC1: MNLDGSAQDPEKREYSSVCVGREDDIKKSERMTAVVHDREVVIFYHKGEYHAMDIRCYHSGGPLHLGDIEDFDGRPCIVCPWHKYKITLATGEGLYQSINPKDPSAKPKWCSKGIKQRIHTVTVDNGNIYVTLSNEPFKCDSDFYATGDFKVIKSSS
UniProt Q9Y3B8: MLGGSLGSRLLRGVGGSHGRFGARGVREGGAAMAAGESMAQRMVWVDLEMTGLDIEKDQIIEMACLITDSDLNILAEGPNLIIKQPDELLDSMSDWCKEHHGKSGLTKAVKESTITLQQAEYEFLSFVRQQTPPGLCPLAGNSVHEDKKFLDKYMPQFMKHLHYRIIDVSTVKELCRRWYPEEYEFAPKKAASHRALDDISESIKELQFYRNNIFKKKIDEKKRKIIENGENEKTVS
UniProt Q96HR9: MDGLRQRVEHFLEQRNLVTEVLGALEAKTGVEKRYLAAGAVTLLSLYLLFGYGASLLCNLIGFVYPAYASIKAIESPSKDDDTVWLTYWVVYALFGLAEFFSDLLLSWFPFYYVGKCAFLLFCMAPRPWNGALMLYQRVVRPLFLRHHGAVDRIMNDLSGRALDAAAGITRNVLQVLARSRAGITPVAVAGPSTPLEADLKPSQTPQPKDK
UniProt P22670: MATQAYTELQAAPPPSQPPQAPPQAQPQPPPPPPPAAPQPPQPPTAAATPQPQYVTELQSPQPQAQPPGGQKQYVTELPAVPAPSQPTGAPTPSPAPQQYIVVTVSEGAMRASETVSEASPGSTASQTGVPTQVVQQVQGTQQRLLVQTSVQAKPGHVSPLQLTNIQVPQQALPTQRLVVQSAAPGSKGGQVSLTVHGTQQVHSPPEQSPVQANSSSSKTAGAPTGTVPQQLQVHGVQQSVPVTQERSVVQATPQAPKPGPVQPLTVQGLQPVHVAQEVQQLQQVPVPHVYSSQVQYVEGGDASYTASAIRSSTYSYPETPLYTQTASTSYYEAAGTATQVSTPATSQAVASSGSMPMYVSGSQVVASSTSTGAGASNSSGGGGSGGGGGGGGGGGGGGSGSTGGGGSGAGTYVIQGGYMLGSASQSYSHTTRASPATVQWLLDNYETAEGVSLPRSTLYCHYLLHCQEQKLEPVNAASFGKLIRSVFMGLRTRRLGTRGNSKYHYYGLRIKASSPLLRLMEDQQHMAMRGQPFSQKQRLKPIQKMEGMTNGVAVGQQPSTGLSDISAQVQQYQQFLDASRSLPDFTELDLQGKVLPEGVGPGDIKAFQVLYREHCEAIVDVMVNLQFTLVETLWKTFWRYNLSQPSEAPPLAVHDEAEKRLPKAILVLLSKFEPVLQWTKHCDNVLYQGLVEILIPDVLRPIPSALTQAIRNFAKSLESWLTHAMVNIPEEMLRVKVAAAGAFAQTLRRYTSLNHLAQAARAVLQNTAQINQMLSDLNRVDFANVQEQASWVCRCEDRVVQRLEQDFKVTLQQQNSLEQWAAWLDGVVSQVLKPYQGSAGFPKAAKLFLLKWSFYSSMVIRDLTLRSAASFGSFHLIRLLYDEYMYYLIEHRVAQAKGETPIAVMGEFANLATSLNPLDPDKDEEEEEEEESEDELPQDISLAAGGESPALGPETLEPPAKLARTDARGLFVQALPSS
UniProt Q9Y2P8: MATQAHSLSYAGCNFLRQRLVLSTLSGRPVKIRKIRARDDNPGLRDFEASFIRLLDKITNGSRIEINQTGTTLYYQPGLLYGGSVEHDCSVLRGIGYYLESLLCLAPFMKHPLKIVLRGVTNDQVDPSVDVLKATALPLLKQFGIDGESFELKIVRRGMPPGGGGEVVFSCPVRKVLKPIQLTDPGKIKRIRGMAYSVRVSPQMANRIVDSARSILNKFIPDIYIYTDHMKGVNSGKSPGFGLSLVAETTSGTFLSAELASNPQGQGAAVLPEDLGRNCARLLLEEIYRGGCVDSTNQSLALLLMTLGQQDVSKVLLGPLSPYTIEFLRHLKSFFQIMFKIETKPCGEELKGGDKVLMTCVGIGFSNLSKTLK
UniProt Q96DB5: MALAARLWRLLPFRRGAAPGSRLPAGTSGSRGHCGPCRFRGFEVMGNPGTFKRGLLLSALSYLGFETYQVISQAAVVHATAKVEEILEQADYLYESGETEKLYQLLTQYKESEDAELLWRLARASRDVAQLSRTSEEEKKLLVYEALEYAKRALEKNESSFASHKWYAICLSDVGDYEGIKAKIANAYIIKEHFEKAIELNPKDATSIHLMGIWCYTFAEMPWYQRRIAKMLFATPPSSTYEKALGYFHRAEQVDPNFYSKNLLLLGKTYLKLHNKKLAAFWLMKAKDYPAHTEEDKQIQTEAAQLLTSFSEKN
UniProt Q6NUK4: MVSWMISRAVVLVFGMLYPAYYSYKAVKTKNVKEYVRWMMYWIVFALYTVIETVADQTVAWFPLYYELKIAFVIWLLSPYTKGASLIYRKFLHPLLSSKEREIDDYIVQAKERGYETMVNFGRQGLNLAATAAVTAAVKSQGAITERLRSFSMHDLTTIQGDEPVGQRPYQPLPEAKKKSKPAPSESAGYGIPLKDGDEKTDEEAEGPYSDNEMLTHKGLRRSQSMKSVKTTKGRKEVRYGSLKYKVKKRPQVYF
UniProt Q15293: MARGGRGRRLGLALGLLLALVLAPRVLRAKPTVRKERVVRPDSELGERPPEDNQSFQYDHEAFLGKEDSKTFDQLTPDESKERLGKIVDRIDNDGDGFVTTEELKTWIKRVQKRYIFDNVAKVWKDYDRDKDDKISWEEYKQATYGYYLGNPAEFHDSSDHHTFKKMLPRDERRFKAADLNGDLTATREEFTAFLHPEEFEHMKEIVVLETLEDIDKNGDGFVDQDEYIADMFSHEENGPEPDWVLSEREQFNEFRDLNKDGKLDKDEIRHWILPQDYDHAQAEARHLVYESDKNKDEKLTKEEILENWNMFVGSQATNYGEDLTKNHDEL

Experiments:
Test in all cases: log2 fold change, soluble protein after heating vs DMSO (PISA); higher = thermal stabilisation; K562 cells, 10 uM, 30 min; active = over 0.2 and 3.5 SD of the protein, either way, in both replicates (recomputed)
[1] = compound: C1COCCN1CCN2C3=CC=CC=C3N=C2NC(=O)C4=CC(=CC=C4)[N+](=O)[O-] [IRAK-1-4 Inhibitor I]
Procedure, shortened: (§1)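 Values are thermal stability changes relative to control samples and are taken from duplicates. They are stated as log2 fold changes. Before quantification by TMTpro 16plex LC-MS/MS with equalised channel sums, K562 cells at 2×10^6 cells/mL were treated with 10 μM compound for 30 min, heated in aliquots for 3 min across 48°C-58°C, pooled, extracted in PBS with 0.5% NP-40 at 4°C, and centrifuged at 21,000xg for 90 min to give the soluble supernatant.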

[2] = compound: C=CC(=O)N1CCC[C@@H](n2nc(-c3ccc(Oc4ccccc4)cc3)c3c(N)ncnc32)C1 [ibrutinib]
Procedure, shortened: as §1

[3] = compound: CC(=O)c1cnc2ccc(-c3cc(Cl)c(O)c(Cl)c3)nc2c1N[C@H]1CC[C@H](CN(C)C)CC1
Procedure, shortened: as §1

[4] = compound: CC(C)(C)Cn1c(N)nc2ccc(-c3[nH]c(C(C)(C)C)nc3-c3ccc(F)cc3)nc21 [ralimetinib]
Procedure, shortened: as §1

[5] = compound: CC(C)(O)CC(=O)NCCn1ccc2ncnc(Nc3ccc(Oc4cccc(C(F)(F)F)c4)c(Cl)c3)c21
Procedure, shortened: as §1

[6] = compound: CC(C)C1=C2N=C(C=C(N2N=C1)NCC3=CC=CC=C3)NCCCCCCN
Procedure, shortened: as §1

[7] = compound: CC(C)C[C@@H](C=O)NC(=O)[C@H](CC(C)C)NC(=O)[C@H](CC(C)C)NC(=O)OCc1ccccc1
Procedure, shortened: as §1

[8] = compound: CC(C)N(C[C@H]1O[C@@H](n2cnc3c(N)ncnc32)[C@H](O)[C@@H]1O)[C@H]1C[C@@H](CCc2nc3cc(C(C)(C)C)ccc3[nH]2)C1 [pinometostat]
Procedure, shortened: as §1

[9] = compound: CC1=C(C(CC(=O)N1)C2=CC=C(C=C2)C(F)(F)F)C(=O)NC3=C(C=C4C(=C3)C=NN4)F
Procedure, shortened: as §1

[10] = compound: CC1=C(C2=C(C=C1)C(=O)C3=CC=CC=C3N2CCCN)C
Procedure, shortened: as §1

[11] = compound: CC1=C(C=C(C=C1)NC(=O)C2=CC(=CC=C2)C(C)(C)C#N)NC3=CC4=C(C=C3)N=CN(C4=O)C
Procedure, shortened: as §1

[12] = compound: CC1=C(C=C(C=C1)NC(=O)C2=CC(=CC=C2)N(C)C)NC(=O)C3=CC=C(C=C3)O
Procedure, shortened: as §1

[13] = compound: CC1=CC=C(C=C1)SC2=C3C=C(SC3=CN=C2)C(=O)N
Procedure, shortened: as §1

[14] = compound: CC1=NC(=CC=C1)C2=C(N=C(N2)C(C)(C)C)C3=CC4=NC=CN=C4C=C3
Procedure, shortened: as §1

[15] = compound: CCCCN(Cc1ccc(C(=O)NO)cc1)C(=O)Nc1ccccc1 [Nexturastat A]
Procedure, shortened: as §1

[16] = compound: CCCS(=O)(=O)Nc1ccc(F)c(C(=O)c2c[nH]c3ncc(-c4ccc(Cl)cc4)cc23)c1F [vemurafenib]
Procedure, shortened: as §1

[17] = compound: CCCS(=O)(=O)Nc1ccc(F)c(C(=O)c2c[nH]c3ncc(Cl)cc23)c1F
Procedure, shortened: as §1

[18] = compound: CCCc1cc(C)[nH]c(=O)c1CNC(=O)c1cc(-c2ccnc(N3CCN(C)CC3)c2)cc2c1cnn2C(C)C
Procedure, shortened: as §1

[19] = compound: CCN(CC)Cc1ccc2cc(COC(=O)Nc3ccc(C(=O)NO)cc3)ccc2c1 [givinostat]
Procedure, shortened: as §1

[20] = compound: CCN(CCCOc1ccc2c(Nc3cc(CC(=O)Nc4cccc(F)c4)[nH]n3)ncnc2c1)CCOP(=O)(O)O [barasertib]
Procedure, shortened: as §1

Measured: log2 fold change

REEP5 (UniProt Q00765)
inactive: [1] 0.086 | [2] 0.011 | [3] -0.078 | [4] 0.057 | [5] 0.054 | [6] 0.1 | [7] 0.071 | [8] -0.06 | [9] 0.022 | [10] 0.057 | [11] -0.003 | [12] 0.057 | [13] 0.013 | [14] -0.004 | [15] 0.024 | [16] -0.063 | [17] -0.07 | [18] -0.106 | [19] -0.112 | [20] 0.003

RCSD1 (UniProt Q6JBY9)
inactive: [1] 0.012 | [2] 0.183 | [3] 0.227 | [4] -0.032 | [5] -0.041 | [6] 0.014 | [7] 0.002 | [8] -0.07 | [9] 0.016 | [10] -0.039 | [11] -0.097 | [12] 0.013 | [13] -0.007 | [14] 0.044 | [15] 0.116 | [16] -0.056 | [17] 0.034 | [18] -0.059 | [19] 0.005 | [20] -0.006

RIOK1 (UniProt Q9BRS2)
inactive: [1] 0.004 | [2] 0.005 | [3] -0.096 | [4] 0.008 | [5] 0.023 | [6] 0.097 | [7] 0.031 | [8] -0.02 | [9] -0.005 | [10] 0.025 | [11] -0.022 | [12] 0.014 | [13] -0.032 | [14] -0.008 | [15] 0.067 | [16] -0.012 | [17] -0.028 | [18] -0.035 | [19] -0.024 | [20] -0.003

RCN2 isoform 2 (UniProt Q14257)
inactive: [1] -0.008 | [2] -0.065 | [3] -0.004 | [4] -0.026 | [5] -0.014 | [6] 0.009 | [7] -0.002 | [8] 0 | [9] 0.028 | [10] -0.036 | [11] -0.005 | [12] 0.048 | [13] 0.016 | [14] 0.002 | [15] 0.007 | [16] 0.007 | [17] -0.007 | [18] -0.003 | [19] 0.003 | [20] 0.013

RNF114 (UniProt Q9Y508)
inactive: [1] 0.025 | [2] 0.027 | [3] 0 | [4] -0.069 | [5] -0.027 | [6] 0.019 | [7] -0.033 | [8] -0.023 | [9] 0.09 | [10] -0.007 | [11] -0.005 | [12] -0.03 | [13] 0.013 | [14] 0.064 | [15] -0.036 | [16] 0 | [17] 0.025 | [18] -0.059 | [19] -0.004 | [20] -0.014

RHOT2 (UniProt Q8IXI1)
inactive: [1] -0.087 | [2] -0.004 | [3] -0.013 | [4] 0 | [5] -0.065 | [6] -0.002 | [7] -0.019 | [8] 0.058 | [9] -0.023 | [10] 0.036 | [11] -0.044 | [12] -0.012 | [13] 0.071 | [14] -0.017 | [15] 0.006 | [16] 0.016 | [17] 0.069 | [18] -0.018 | [19] 0.094 | [20] 0.015

RER1 (UniProt O15258)
inactive: [1] 0.032 | [2] -0.003 | [3] 0.092 | [4] -0.033 | [5] 0.049 | [6] -0.063 | [7] 0.066 | [8] -0.056 | [9] -0.041 | [10] -0.001 | [11] -0.02 | [12] 0.037 | [13] -0.001 | [14] 0.012 | [15] 0.013 | [16] 0.022 | [17] 0.033 | [18] 0.043 | [19] 0.014 | [20] -0.024

RHOG (UniProt P84095)
inactive: [1] 0.078 | [2] 0.003 | [3] 0.027 | [4] -0.009 | [5] 0.018 | [6] 0.079 | [7] -0.06 | [8] -0.019 | [9] -0.022 | [10] 0.067 | [11] 0.039 | [12] 0.031 | [13] -0.007 | [14] 0.02 | [15] -0.079 | [16] -0.04 | [17] -0.023 | [18] -0.034 | [19] -0.031 | [20] 0.008

RFESD isoform 2 (UniProt Q8TAC1)
inactive: [1] 0.042 | [2] 0.023 | [3] 0.016 | [4] -0.048 | [5] -0.104 | [6] 0.114 | [7] 0.059 | [8] -0.052 | [9] 0.043 | [10] 0 | [11] -0.042 | [12] -0.012 | [13] -0.075 | [14] 0 | [15] 0.014 | [16] 0.001 | [17] -0.028 | [18] -0.008 | [19] -0.174 | [20] -0.012

REXO2 (UniProt Q9Y3B8)
inactive: [1] 0.036 | [2] 0.011 | [3] 0.015 | [4] -0.043 | [5] 0.03 | [6] 0.068 | [7] 0.016 | [8] -0.047 | [9] 0.008 | [10] 0.006 | [11] -0.002 | [12] 0.024 | [13] 0.02 | [14] 0.007 | [15] -0.062 | [16] 0.024 | [17] 0.005 | [18] -0.062 | [19] -0.034 | [20] -0.031

REEP6 (UniProt Q96HR9)
inactive: [1] 0 | [2] -0.027 | [3] 0.012 | [4] -0.115 | [5] 0.05 | [6] 0.024 | [7] -0.019 | [8] -0.005 | [9] -0.024 | [10] 0.032 | [11] -0.073 | [12] -0.069 | [13] 0.01 | [14] -0.007 | [15] -0.044 | [16] -0.138 | [17] -0.002 | [18] -0.097 | [19] 0.001 | [20] 0.078

RFX1 (UniProt P22670)
inactive: [1] 0.008 | [2] -0.029 | [3] 0 | [4] -0.05 | [5] -0.077 | [6] 0.044 | [7] 0.014 | [8] -0.038 | [9] 0.017 | [10] 0.015 | [11] 0.071 | [12] 0.002 | [13] 0.02 | [14] -0.027 | [15] -0.119 | [16] -0.034 | [17] 0.073 | [18] 0.05 | [19] -0.082 | [20] 0.009

RCL1 (UniProt Q9Y2P8)
inactive: [1] -0.047 | [2] 0.086 | [3] 0.066 | [4] 0.165 | [5] 0 | [6] -0.033 | [7] 0.094 | [8] 0.216 | [9] -0.002 | [10] -0.3 | [11] -0.008 | [12] -0.006 | [13] 0.021 | [14] -0.12 | [15] 0.216 | [16] -0.07 | [17] -0.016 | [18] 0.11 | [19] 0.101 | [20] -0.051

RMDN1 (UniProt Q96DB5)
inactive: [1] 0.065 | [2] 0.006 | [3] -0.068 | [4] -0.032 | [5] -0.004 | [6] -0.031 | [7] -0.005 | [8] -0.017 | [9] 0.001 | [10] 0.025 | [11] -0.036 | [12] 0.01 | [13] 0.023 | [14] 0.033 | [15] -0.015 | [16] 0.043 | [17] 0.022 | [18] -0.028 | [19] 0.001 | [20] 0.026

REEP3 (UniProt Q6NUK4)
inactive: [1] -0.097 | [2] 0.015 | [3] -0.187 | [4] -0.054 | [5] 0.032 | [6] 0.029 | [7] 0.049 | [8] 0.122 | [9] 0.015 | [10] 0.078 | [11] -0.077 | [12] 0.053 | [13] -0.049 | [14] 0.022 | [15] 0.143 | [16] -0.045 | [17] -0.164 | [18] -0.218 | [19] 0.054 | [20] 0.017

2 successive records out of the list so far, for reference:
RMDN1 (UniProt Q96DB5)
inactive: [1] 0.065 | [2] 0.006 | [3] -0.068 | [4] -0.032 | [5] -0.004 | [6] -0.031 | [7] -0.005 | [8] -0.017 | [9] 0.001 | [10] 0.025 | [11] -0.036 | [12] 0.01 | [13] 0.023 | [14] 0.033 | [15] -0.015 | [16] 0.043 | [17] 0.022 | [18] -0.028 | [19] 0.001 | [20] 0.026

REEP3 (UniProt Q6NUK4)
inactive: [1] -0.097 | [2] 0.015 | [3] -0.187 | [4] -0.054 | [5] 0.032 | [6] 0.029 | [7] 0.049 | [8] 0.122 | [9] 0.015 | [10] 0.078 | [11] -0.077 | [12] 0.053 | [13] -0.049 | [14] 0.022 | [15] 0.143 | [16] -0.045 | [17] -0.164 | [18] -0.218 | [19] 0.054 | [20] 0.017

Following part

RCN1 (UniProt Q15293)
inactive: [1] 0.032 | [2] 0.002 | [3] 0.023 | [4] -0.045 | [5] 0.038 | [6] 0.01 | [7] -0.017 | [8] -0.032 | [9] 0.046 | [10] -0.034 | [11] -0.032 | [12] 0.025 | [13] -0.011 | [14] -0.038 | [15] -0.003 | [16] -0.022 | [17] -0.006 | [18] -0.064 | [19] 0.025 | [20] 0.019
